Assay results taken from patent EP0684037B1, “Deodorant compositions” (UNILEVER PLC, priority 1994, dated 1995).

Assay: Odour Intensity Index Method (panel, magnitude estimation against benzyl acetate standards)

CC(=O)OCc1ccccc1 [Benzyl Acetate]
Perceived Odour Index (1% in dipropylene glycol): 54
Perceived Odour Index (5% in dipropylene glycol): 89
Perceived Odour Index (10% in dipropylene glycol): 102
Perceived Odour Index (20% in dipropylene glycol): 108
Perceived Odour Index (50% in dipropylene glycol): 120
Perceived Odour Index (Neat): 132
